Assay results as given in PubChem BioAssay AID220 (DTP/NCI, 2004).
The list is a part of this screen's results and no random one: it is rich in T/C values a quarter to a half above the control, in often repeated tests (any T/C) and in doses without a T/C. Further doses and runs are listed elsewhere. T/C: endpoint of the treated group in % of that of the vehicle group. Schedules are NCI's codes, read here as Q, the interval in days (D) or hours (H), X, the number of doses. Some T/C values are followed by the survivors on the day toxicity was checked, most often the fifth; without a count, all were alive then. Some entries give survivors of the animals treated and no T/C: the source holds a T/C of zero for them, seemingly a mark for toxic or unscored doses. Counts of survivors are from the toxicity check (mostly the fifth day) where no day follows; animals may have died later. Some entries were tested several times; their values stand side by side, smallest first.

Tested on: CD8F1 mice, subcutaneous mammary adenocarcinoma, T/C%
Test: NCI In Vivo Anticancer Drug Screen. Data for tumor model Mammary Adenocarcinoma CD8F1 (subcutaneous) in CD8F1
Details: higher T/C = larger tumour
How it was run: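 Ratio of treated to vehicle-control outcome, based on either survival or tumor size, in mice bearing transplantable tumors given the test compound.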

[1] = T/C endpoint: median tumor weight (est.), dose: 50.0 mg/kg/injection, schedule: Q07DX005 (ip), vehicle: saline with Tween-80, evaluated on day 30
[2] = T/C endpoint: median tumor weight (est.), dose: 400.0 mg/kg/injection, schedule: Q07DX005 (ip), vehicle: saline with Tween-80
[3] = T/C endpoint: median tumor weight change, dose: 1000.0 mg/kg/injection, schedule: Q01DX001 (ip), vehicle: saline with Tween-80
[4] = T/C endpoint: median tumor weight change, dose: 250.0 mg/kg/injection, schedule: Q01DX001 (ip), vehicle: saline with Tween-80
[5] = T/C endpoint: median tumor weight change, dose: 500.0 mg/kg/injection, schedule: Q01DX001 (ip), vehicle: saline with Tween-80
[6] = T/C endpoint: median tumor weight change, dose: 125.0 mg/kg/injection, schedule: Q01DX001 (ip), vehicle: saline with Tween-80
[7] = T/C endpoint: median tumor weight (est.), dose: 50.0 mg/kg/injection, schedule: Q07DX005 (ip), vehicle: saline with Tween-80
[8] = T/C endpoint: median tumor weight (est.), dose: 100.0 mg/kg/injection, schedule: Q07DX005 (ip), vehicle: saline with Tween-80

CCCCCCCCCCCCCCCC(=O)Nc1ccn(C2OC(CO)C(O)C2O)c(=O)n1 (configuration not stated)
survivor count (T/C endpoint: median tumor weight (est.), dose: 200.0 mg/kg/injection, schedule: Q07DX005 (ip), vehicle: saline): 6 of 10 on day 30

CCS/C(SC)=C(/c1ccccc1)[P+](c1ccccc1)(c1ccccc1)c1ccccc1
survivor count (T/C endpoint: median tumor weight change, dose: 7.5 mg/kg/injection, schedule: Q01DX001 (ip), vehicle: Klucel (hydroxypropylcellulose) (HPC)): 5 of 10 on day 29 | survivor count (T/C endpoint: median tumor weight change, dose: 15.0 mg/kg/injection, schedule: Q01DX001 (ip), vehicle: Klucel (hydroxypropylcellulose) (HPC)): 2 of 10 on day 29 | survivor count (T/C endpoint: median tumor weight change, dose: 30.0 mg/kg/injection, schedule: Q01DX001 (ip), vehicle: Klucel (hydroxypropylcellulose) (HPC)): 0 of 10 on day 29 | survivor count (T/C endpoint: median tumor weight change, dose: 60.0 mg/kg/injection, schedule: Q01DX001 (ip), vehicle: Klucel (hydroxypropylcellulose) (HPC)): 0 of 10 on day 29 | survivor count (T/C endpoint: median tumor weight change, dose: 120.0 mg/kg/injection, schedule: Q01DX001 (ip), vehicle: Klucel (hydroxypropylcellulose) (HPC)): 0 of 10 on day 29

CC(=S)NC(O)C(=O)c1ccccc1 (configuration not stated)
T/C (T/C endpoint: median tumor weight (est.), dose: 12.5 mg/kg/injection, schedule: Q07DX005 (ip), vehicle: saline with Tween-80, evaluated on day 30): 125 % of control | T/C [1]: 132 % of control | survivor count [2]: 1 of 10 on day 30

O=[N+]([O-])c1ccc(Cl)c([N+](=O)[O-])c1
T/C (T/C endpoint: median tumor weight (est.), dose: 15.0 mg/kg/injection, schedule: Q07DX005 (ip), vehicle: saline with Tween-80, evaluated on day 30): 126 % of control

CC(Oc1ccccc1-c1ccccc1)C(=O)N(C)C (configuration not stated)
survivor count [3]: 0 of 10 on day 28 | survivor count (T/C endpoint: median tumor weight change, dose: 2000.0 mg/kg/injection, schedule: Q01DX001 (ip), vehicle: saline with Tween-80): 0 of 10 on day 28

O=C1C(O)=C(c2ccccc2)C(=O)C(O)=C1c1ccccc1
survivor count [4]: 1 of 10 on day 32 | survivor count [5]: 0 of 10 on day 32

c1ccc2c(c1)-c1ccccc1C1NC21 (configuration not stated)
survivor count [6]: 4 of 10 on day 32 | survivor count [4]: 0 of 10 on day 32 | survivor count [5]: 1 of 10 on day 32

CCc1ncnc2cc(OCC3CO3)c(OC)cc12 (configuration not stated)
survivor count (T/C endpoint: median tumor weight change, dose: 50.0 mg/kg/injection, schedule: Q01DX001 (ip), vehicle: suspension in saline): 0 of 10 on day 29 | survivor count (T/C endpoint: median tumor weight change, dose: 100.0 mg/kg/injection, schedule: Q01DX001 (ip), vehicle: suspension in saline): 0 of 10 on day 29 | survivor count (T/C endpoint: median tumor weight change, dose: 200.0 mg/kg/injection, schedule: Q01DX001 (ip), vehicle: suspension in saline): 0 of 10 on day 36 and 6 of 10 on day 29 | survivor count (T/C endpoint: median tumor weight change, dose: 400.0 mg/kg/injection, schedule: Q01DX001 (ip), vehicle: suspension in saline): 0 of 10 on day 36 | survivor count (T/C endpoint: median tumor weight change, dose: 800.0 mg/kg/injection, schedule: Q01DX001 (ip), vehicle: suspension in saline): 0 of 10 on day 29

CN1CCN(CCCN2c3ccccc3Sc3ccc(C(F)(F)F)cc32)CC1
T/C [1]: 149 % of control

Cc1cc(NCCCCCCCNc2cc(C)nc3cc(N)ccc23)c2ccc(N)cc2n1
survivor count [7]: 4 of 10 on day 30 | survivor count [8]: 0 of 10 on day 30 | survivor count (T/C endpoint: median tumor weight change, dose: 62.5 mg/kg/injection, schedule: Q01DX001 (ip), vehicle: saline with Tween-80): 0 of 10 on day 39 | survivor count [6]: 0 of 10 on day 39 and 1 of 10 on day 30 | survivor count [4]: 0 of 10 on day 39 and 2 of 10 on day 30 | survivor count [5]: 0 of 10 on day 30 and 0 of 10 on day 39

Cc1cn(C2CC3[O][Sn]([c]4ccccc4)([c]4ccccc4)[O]CC3O2)c(=O)[nH]c1=O (configuration not stated)
T/C (T/C endpoint: median tumor weight (est.), dose: 6.25 mg/kg/injection, schedule: Q07DX005 (ip), vehicle: saline, evaluated on day 30): 138 % of control

CC1=C(/C=C/C(C)=C/C=C/C(C)=C/C=O)C(C)(C)CCC1
survivor count [4]: 2 of 10 on day 33 | survivor count [5]: 0 of 10 on day 33 | survivor count [3]: 0 of 10 on day 33

C[C@@](O)(/C=C/[C@H]1CC=CC(=O)O1)[C@@H](C[C@@H](O)\C=C/C=C\C=C\CO)OP(=O)(O)O
survivor count (T/C endpoint: median tumor weight change, dose: 125.0 mg/kg/injection, schedule: Q01DX001 (ip), vehicle: other): 0 of 10 on day 41 | survivor count (T/C endpoint: median tumor weight change, dose: 250.0 mg/kg/injection, schedule: Q01DX001 (ip), vehicle: other): 0 of 10 on day 41

C1CN2CN3CCN(CN1C3)C2
survivor count (T/C endpoint: mean tumor weight, dose: 200.0 mg/kg/injection, schedule: Q07DX006 (ip), vehicle: saline): 2 of 10

O=C1C2(Cl)C3(Cl)C4(Cl)C(Cl)(Cl)C5(Cl)[C@]3(Cl)C1(Cl)[C@]5(Cl)C24Cl (some centres not stated)
T/C (T/C endpoint: median tumor weight (est.), dose: 6.25 mg/kg/injection, schedule: Q07DX005 (ip), vehicle: Klucel (hydroxypropylcellulose) (HPC), evaluated on day 30): 125 % of control

CC(=O)Nc1ccc(C(=O)C=O)cc1
survivor count [2]: 5 of 10 on day 32

COc1cc(C(=O)c2cc3c(cc2C)OCO3)cc(OC)c1OC
survivor count (T/C endpoint: median tumor weight change, dose: 500.0 mg/kg/injection, schedule: Q01DX001 (ip), vehicle: Klucel (hydroxypropylcellulose) (HPC)): 3 of 10 on day 32 | survivor count (T/C endpoint: median tumor weight change, dose: 1000.0 mg/kg/injection, schedule: Q01DX001 (ip), vehicle: Klucel (hydroxypropylcellulose) (HPC)): 0 of 10 on day 29 and 0 of 10 on day 32 | survivor count (T/C endpoint: median tumor weight change, dose: 2000.0 mg/kg/injection, schedule: Q01DX001 (ip), vehicle: Klucel (hydroxypropylcellulose) (HPC)): 0 of 10 on day 29 and 0 of 10 on day 32

CC[As](=O)(O)CC
T/C (T/C endpoint: mean tumor weight, dose: 50.0 mg/kg/injection, schedule: Q07DX005 (ip), vehicle: saline, evaluated on day 35): 132 % of control [8 of 10 alive] | T/C (T/C endpoint: median tumor weight (est.), dose: 50.0 mg/kg/injection, schedule: Q07DX005 (ip), vehicle: saline, evaluated on day 30): 141 % of control | survivor count (T/C endpoint: median tumor weight (est.), dose: 400.0 mg/kg/injection, schedule: Q07DX005 (ip), vehicle: saline): 0 of 10 on day 30

NC(=S)Nc1cccc2ccccc12
survivor count [6]: 3 of 10 on day 36 | survivor count [4]: 0 of 10 on day 36 | survivor count [5]: 0 of 10 on day 36

O=NN(CCCl)C(=O)Oc1ccc(OC(=O)N(CCCl)N=O)cc1
survivor count (T/C endpoint: median tumor weight change, dose: 100.0 mg/kg/injection, schedule: Q01DX001 (ip), vehicle: Klucel (hydroxypropylcellulose) (HPC)): 6 of 10 on day 36 | survivor count (T/C endpoint: median tumor weight change, dose: 200.0 mg/kg/injection, schedule: Q01DX001 (ip), vehicle: Klucel (hydroxypropylcellulose) (HPC)): 0 of 10 on day 36 | survivor count (T/C endpoint: median tumor weight change, dose: 400.0 mg/kg/injection, schedule: Q01DX001 (ip), vehicle: Klucel (hydroxypropylcellulose) (HPC)): 0 of 10 on day 36

COc1cccc2c1C(=O)c1c(O)c3c(c(O)c1C2=O)C[C@@](O)(C(=O)CO)C[C@@H]3OC1CC(OC(C)=O)C(OC(C)=O)C(C)O1 (some centres not stated)
survivor count (T/C endpoint: median tumor weight (est.), dose: 50.0 mg/kg/injection, schedule: Q07DX005 (ip), vehicle: distilled water + Tween-80): 5 of 10 on day 30 | survivor count (T/C endpoint: median tumor weight (est.), dose: 100.0 mg/kg/injection, schedule: Q07DX005 (ip), vehicle: distilled water + Tween-80): 0 of 10 on day 30

Cc1ccc(S(=O)(=O)NC(=O)OC23COCN2COC3)cc1
T/C (T/C endpoint: median tumor weight change, dose: 250.0 mg/kg/injection, schedule: Q01DX001 (ip), vehicle: water, evaluated on day 28): 145 % of control | T/C (T/C endpoint: median tumor weight change, dose: 1000.0 mg/kg/injection, schedule: Q01DX001 (ip), vehicle: saline with Tween-80, evaluated on day 28): 129 % of control

NC(N)=NC(N)=Nc1ccc(-c2ccc(N=C(N)N=C(N)N)cc2)cc1
T/C (T/C endpoint: median tumor weight (est.), dose: 25.0 mg/kg/injection, schedule: Q07DX005 (ip), vehicle: saline with Tween-80, evaluated on day 30): 145 % of control | survivor count [7]: 1 of 10 on day 30 | survivor count [8]: 0 of 10 on day 30
